Reference: PubChem BioAssay AID504784 (Drosophila RNAi Screening Center, 2011)

- Purpose: 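Search for regulators of lipid droplet storage in oleate-fed fly cells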 (primary screen)
- System: Drosophila Kc167 embryonic cells
- Reagent: long dsRNA against Drosophila genes, about 250 ng dsRNA per well
- Time to read-out: 4 days
- Challenge: cells fed 400 µM oleic acid bound to BSA
- Measurement: 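Cells imaged and segmented; ratio of lipid droplet area to nuclear area, log-transformed, then normalised as a B-score over the screen; higher means more stored lipid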
- Direction: droplet/nuclear area B-score: higher = more stored lipid (overstorage)
The screen tested about 17,000 reagents; shown is an unselected part of those with a known target gene and a result. 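Each column is one replicate's B-score; the combined score over replicates was not deposited, so single values may mislead.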 A plus sign joins genes that one reagent is predicted to hit. No sequences are given here.

Gene | DRSC id | droplet/nuclear area B-score, replicate 1 | droplet/nuclear area B-score, replicate 2 | droplet/nuclear area B-score, replicate 3
Tsen34 | DRSC22932 | 0.274 | 3.32 | –
Cht6 | DRSC18001 | -1.45 | -1.26 | 0.641
Cht6 | DRSC18002 | 0.906 | 0.79 | 1.73
Cht6 | DRSC18253 | 0.701 | 0.712 | -0.178
Cht6 | DRSC23211 | -1.13 | -1.38 | –
DCTN3-p24 | DRSC04592 | 0.734 | -0.778 | –
CG17078 | DRSC00484 | 1.17 | 0.675 | –
Obp57a | DRSC22047 | -0.683 | -0.602 | –
CG12641 (retired record) | DRSC17848 | 0.123 | 0.424 | –
CG12641 (retired record) | DRSC23059 | 1.06 | 2 | –
CG17121 | DRSC15176 | -0.159 | -0.982 | –
Tep1 | DRSC03450 | 0.0911 | 0.0301 | –
CG7542 | DRSC10868 | 0.22 | -0.169 | –
Tmem214 | DRSC02924 | -0.541 | 0.095 | –
Tmem214 | DRSC02925 | 0.223 | 0.212 | –
CG31639 | DRSC00910 | 0.646 | -0.66 | –
zip | DRSC04725 | -0.39 | -0.343 | 0.367
zip | DRSC22489 | -0.283 | 0.439 | –
CG42795 | DRSC12772 | 1.05 | 0.0755 | –
CG42795 | DRSC15533 | -0.37 | -0.742 | –
mbl | DRSC05657 | 2.23 | -1.94 | –
mbl | DRSC06449 | -2.72 | – | –
mbl | DRSC07651 | 0.627 | 0.527 | –
mbl | DRSC23188 | 0.787 | 1.41 | –
smid | DRSC11398 | 0.117 | -0.388 | –
CG11470 | DRSC14313 | -0.416 | -1.51 | –
rho-5 | DRSC02847 | -6.09 | -0.493 | 0.61
CG10081 | DRSC05962 | -0.6 | 0.768 | –
Lsm12a | DRSC19702 | 1.23 | 1.49 | 1.67
Dyro | DRSC10598 | 0.303 | -0.0254 | –
Aduk | DRSC16451 | 0.0627 | -0.173 | –
mahj | DRSC04053 | -0.396 | -0.799 | –
TrpRS | DRSC14097 | 1.01 | 1.9 | –
CG13559 | DRSC04197 | 1.76 | 0.0609 | –
Chd3 | DRSC11114 | 0.632 | 1.51 | –
se | DRSC10713 | -0.963 | -0.424 | –
Cyp4ae1 | DRSC18455 | 0.853 | 0.681 | –
ND6 (retired record) | DRSC21271 | -1.88 | 1.31 | -0.000529
CG15450 | DRSC20522 | -0.416 | 1.51 | –
lmgA + lmgB | DRSC03566 | -0.261 | 1.1 | –
CG34462 | DRSC10768 | 1.67 | 2.38 | –
Oseg4 | DRSC08548 | -0.407 | – | –
TwdlU | DRSC12224 | 0.402 | 1.4 | –
holn1 | DRSC02827 | 0.573 | 1.05 | –
holn1 | DRSC22822 | 5.89 | -1.11 | –
Lip3 | DRSC16727 | 1.68 | -1.04 | 1.14
CG11170 | DRSC04090 | 0.0863 | 0.251 | –
mal | DRSC20581 | -0.367 | -0.19 | –
Sol1 | DRSC15263 | 1.52 | 0.3 | –
Sol1 | DRSC15271 | 0.42 | 0.988 | –
Sol1 | DRSC15681 | -0.502 | 0.148 | –
Cubn2 | DRSC10561 | 1.17 | -0.115 | –
Cubn2 | DRSC22044 | 0.0269 | 1 | –
Rgk3 | DRSC04250 | -0.821 | -0.0155 | 5.82
Rgk3 | DRSC04251 | -0.326 | -1.78 | –
Rgk3 | DRSC04254 | 2.02 | 0.135 | –
Rgk3 | DRSC04255 | -0.0901 | -0.216 | –
CG12375 | DRSC02163 | -0.83 | 0.0314 | –
NK7.1 | DRSC16755 | 2.66 | 0.438 | –
CG4704 | DRSC15628 | -0.912 | -0.509 | –
swaPsi | DRSC21685 | -1.14 | -0.747 | –
BubR1 | DRSC04838 | 3.09 | 1.78 | –
Cdk1 | DRSC03504 | -1.62 | 0.138 | –
CG15530 | DRSC15067 | -1.79 | 0.0141 | –
mRpS2 | DRSC00550 | 1.19 | 1.12 | –
Axs | DRSC19333 | 0.211 | 0.0113 | –
CG9330 | DRSC11066 | 0.81 | -0.789 | –
CheA75a | DRSC10807 | 0.318 | -0.237 | -0.581
Vha36-2 | DRSC06294 | – | 1.3 | –
CG13202 | DRSC06326 | -0.145 | -0.644 | –
Brca2 | DRSC04219 | -1.36 | 1.2 | –
Brca2 | DRSC04220 | -0.452 | -0.998 | –
CG5665 | DRSC11783 | -1.28 | -1.14 | –
Syx7 | DRSC11763 | -1.6 | -0.415 | 0.0536
Cpr65Ea | DRSC11027 | -0.638 | -1.57 | –
fs(1)h | DRSC18778 | -0.154 | -1.66 | -0.262
Muc4B | DRSC18062 | 0.303 | -1.02 | –
Muc4B | DRSC18063 | -0.653 | 2.35 | –
Cog1 | DRSC15661 | 0.0296 | -0.704 | –
CG6678 | DRSC16092 | 0.886 | -2.46 | –
Ccdc85 | DRSC00501 | 2.74 | 1.43 | –
Ccdc85 | DRSC23173 | -0.817 | 1.68 | –
Mpp6 | DRSC03169 | -1.3 | -0.208 | –
Wsck | DRSC13682 | 0.65 | -0.0353 | –
tud | DRSC04719 | -0.523 | -0.333 | –
CG12016 + Dpm2 | DRSC08224 | -2.74 | -0.13 | –
CG12880 | DRSC14568 | -0.495 | 0.688 | –
CG17304 (retired record) | DRSC15222 | 4.25 | 1.98 | –
CG17304 (retired record) | DRSC23250 | 0.38 | 1.19 | –
CG13856 | DRSC14706 | 0.449 | 0.205 | –
CG14183 | DRSC10182 | -0.269 | -0.0956 | -0.641
Ir8a | DRSC17817 | 1.75 | 0.091 | -0.508
Ir8a | DRSC17869 | -2.04 | -1.91 | -1.54
CG15561 | DRSC15100 | -0.0479 | 2.23 | –
dgt6 | DRSC14424 | -0.62 | 0.681 | –
CG10660 | DRSC09769 | 2.88 | 3.44 | –
Abcd3 | DRSC19488 | 1.24 | 0.663 | –
Ciz1 | DRSC09675 | 0.318 | 2.71 | –
ear | DRSC15675 | 1.05 | – | –
Prosalpha4T2 | DRSC04643 | 0.576 | -0.514 | –
CG3769 | DRSC02723 | -2.2 | 1.05 | –
Act5C | DRSC17723 | -1.72 | -2.76 | –
Grasp65 | DRSC10917 | -1.38 | 0.462 | –
CG14130 | DRSC10134 | 0.739 | -0.229 | –
CG2224 | DRSC15429 | 0.359 | 0.928 | –
